Drawing on paper PMC3858230, this text covers binding for one molecule.

The assay concerns the target T1, Biotp-Fctwt: F cytoplasmic tail (wt TYTLE) fused to a peptide containing a biotinylation site (Sendai virus) (UniProt P04855).
T1 sequence (chain, biotin on the biotinylation site of Biotp): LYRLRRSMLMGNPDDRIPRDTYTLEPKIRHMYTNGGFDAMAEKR
The assay can be described thus: pull-down; streptavidin agarose pull-down of biotinylated Biotp fusions from lysates of infected α-gfpt siRNA MDCK cells, 30 h post infection; lysing buffer I (NaCl 10 mM, Tris-HCl pH 8.0 50 mM, NP40 0.6%); 2 h at 4°C; 5 washes with NET buffer; Western blot with α-M.

These are yes or no findings as the source states them, for the method shown. In cells and extracts the contact can be indirect. Some results given as binding are weak or reduced against the parent protein; the word gives no strength. Where a sequence is shown, tags or fusion partners need not be part of it.

B1: Sendai virus matrix protein M (protein, UniProt P06446 1-348)
chain: MADIYRFPKFSYEDNGTVEPLPLRTGPDKKAIPHIRIVKVGDPPKHGVRYLDLLLLGFFETPKQTTNLGSVSDLTEPTSYSICGSGSLPIGVAKYYGTDQELLKACTDLRITVRRTVRAGEMIVYMVDSIGAPLLPWSGRLRQGMIFNANKVALAPQCLPVDKDIRLRVVFVNGTSLGAITIAKIPKTLADLALPNSISVNLLVTLKTGISTEQKGVLPVLDDQGEKKLNFMVHLGLIRRKVGKIYSVEYCKSKIERMRLIFSLGLIGGISFHVQVNGTLSKTFMSQLAWKRAVCFPLMDVNPHMNMVIWAASVEITGVDAVFQPAIPRDFRYYPNVVAKNIGRIRKL
On to B1, for which the binding entry was “binds”.
